These are yes or no findings as the source states them, for the method shown. Some results given as binding are weak or reduced against the parent protein; the word gives no strength.

Sequences of proteins named here, by UniProt entry; tags and fusion partners are left off. Residues count along the entry.
UniProt P25942, residues 21-277: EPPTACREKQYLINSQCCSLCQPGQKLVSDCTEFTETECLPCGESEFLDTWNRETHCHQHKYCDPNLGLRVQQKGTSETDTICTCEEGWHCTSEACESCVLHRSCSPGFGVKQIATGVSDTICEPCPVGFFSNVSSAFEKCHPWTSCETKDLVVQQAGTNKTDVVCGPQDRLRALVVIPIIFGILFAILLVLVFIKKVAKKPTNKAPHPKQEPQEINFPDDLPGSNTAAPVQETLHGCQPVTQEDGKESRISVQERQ

For the test, the target named is human CD40 (human) (UniProt P25942). As to the kind of experiment: FACS binding to HEK293/CD40 cells.

B1: parent CD40 monoclonal antibody 9E5-25 (antibody, V domains shown)
VH: QVQLVQSGAEVKKPGASVKVSCKASGYILTTYWITWVRQAPGQGLEWMGDIHPGSGSTKYNEKFKSRVTLTVDTSISTAYMELSRLRSEDTAVYYCARRDYWGQGTTVTVSS
VL: DIVMTQSPLSLPVTPGEPASISCRSSQNIVNSQGNTYLEWYLQKPGQSPQLLIYKVTNRFSGVPDRFSGSGSGTDFTLKISRVEAEDVGVYYCFQASLVPWTFGGGTKVEIK
Take B1: the binding result is “binds”.

Source of the values: patent US20240010754A1.
